Laboratory results from PubChem BioAssay (EPA / NIEHS).
Inconclusive means that the source gave no clear call. Such entries were picked first, then a sample of the others. Potencies beside an inconclusive call are fits to weak or partial responses and may not hold up. The source made the active and inactive calls. How the source made its calls: active means hit-call score of the fitted dose curve at least 0.9, where 1 is the maximum; inconclusive means response in the unintended direction; inactive means score below 0.9.

Assay: ATG_M_32_TRANS: Attagene TRANS-FACTORIAL HepG2 Assay for M32 Transcription Factor (Internal Marker) (AID 2282984)
Conditions: HepG2 Attagene TRANS M32 internal marker reporter
Protocol: ATG_TRANS is a cell-based, multiplexed-readout assay that uses HepG2, a human liver cell line, with measurements taken at 24 hours after chemical dosing in a 24-well plate.ATG_M_32_TRANS is one of 30 assay component(s) measured or calculated from the ATG_TRANS assay. It is designed to make measurements of mRNA induction, a form of inducible reporter, as detected with fluorescence intensity signals by Reverse transcription polymerase chain reaction (RT-PCR) and Capillary electrophoresis technology.Data from the assay component ATG_M_32_TRANS was analyzed into 1 assay endpoint. This assay endpoint, ATG_M_32_TRANS, was analyzed in the positive analysis fitting direction relative to DMSO as the negative control and baseline of activity. Using a type of inducible reporter, measures of mRNA for gain-of-signal activity can be used to understand the background control at the transcription factor-level as they relate to the gene . Furthermore, this assay endpoint can be referred to as a secondary readout, because this assay has produced multiple assay endpoints where this one serves a background control function. To generalize the intended target to other relatable targets, this assay endpoint is annotated to the background measurement intended target family, where the subfamily is internal marker.
Human liver HepG2 cells are transiently transfected with multiple reporter transcription units (MRTUs) in 6-well plates using FuGene 6 reagent (Roche; 3 ml FuGene/1 mg DNA). The MRTU constructs are regulated by a cis-regulating element (promoter). […] A major difference between the CIS and TRANS system is that in CIS activities of endogenous TFs are measured, whereas the TRANS assay evaluates changes in activities of exogenous, chimeric NR-Gal4 proteins. […] At the end of 24 hour incubation, total RNA was isolated using TriZol reagent (Invitrogen). The isolated RNA is then reverse-transcribed using oligo(dT) primer and Mo-MLV reverse transcriptase (Invitrogen) with DNAse I (Ambion) treatment for 30 min. The one-tenth of the produced cDNA was amplified by PCR using Taq DNA polymerase (Invitrogen) and two reporter sequence-specific primers. The PCR products were fluorescently labeled by primer extension with 6-arboxyfluorescein (6-FAM) 5'-labeled reporter sequence-specific primer (2 min at 95 C, 20 s at 68 C and 10 min at 72 C) and these products were digested with 5U of HpaI (New England Biolabs) for 2h at 37 C. The fragments were purified using Qiaquick PCR columns (Qiagen), analyzed on an ABI 3130xL genetic analyzer (Applied Biosystems) with peak positions identified by using a set of X-rhodamine (ROX)-labeled MapMarker1000 molecular weight standards (BioVentures). The raw capillary electrophoresis data was processed using Attagraph software (Attagene).
In the case of `COc1ccc(S(=O)(=O)N2C(=O)[C@@](c3ccccc3OC)(N3C[C@H](O)C[C@H]3C(=O)N(C)C)c3cc(Cl)ccc32)c(OC)c1`, the AC50 is reported as inconclusive: 7.78 µM.
With `C/C=C/C(=O)C1=C(C)CCCC1(C)C` the outcome was “inactive”.
With `CCC(C)C(=O)OCCc1ccccc1` (stereo not given) the AC50 was inconclusive: 3.96 µM.
For `COC(=O)/C=C\C(=O)O`, the AC50 was inconclusive: 168 µM.
With `O=C(O)c1ccccc1C(c1ccc(O)cc1)c1ccc(O)cc1` the outcome was “inactive” and the AC50 was inconclusive: 100 µM.
With `CC(=O)CC(=O)N(C)C` the outcome was “inactive”.
With `CC(=O)OC(C)C` the AC50 was inconclusive: 0.0135 µM.
For `Cc1ccc(C)c(OCCCC(C)(C)C(=O)O)c1`, the outcome was “inactive”.
In the case of `CC(C)(C)C(=O)C1C(=O)c2ccccc2C1=O`, the outcome is reported as “inactive”.
With `CC(=O)OC/C=C(\C)CCC=C(C)C` the outcome was “inactive”.
For `Cc1ccc(OC(=O)CC(C)C)cc1`, the outcome was “inactive”.
With `O=C(O)CCCC[C@@H]1SC[C@@H]2NC(=O)N[C@@H]21` the outcome was “inactive”.
In the case of `Cc1ccc(S(=O)(=O)C(I)I)cc1`, the outcome is reported as “inactive”.
In the case of `OCCOCCOCCOCCO`, the outcome is reported as “inactive”.
With `OCC(F)(F)C(F)(F)C(F)(F)C(F)F` the outcome was “inactive”.
In the case of `O=C(O)C(F)(F)C(F)(F)C(F)(F)F`, the AC50 is reported as inconclusive: 150 µM.
With `CC(C)C(=O)Nc1ccc([N+](=O)[O-])c(C(F)(F)F)c1` the AC50 was inconclusive: 100 µM.
For `Oc1ccc(/C=C/c2cc(O)cc(O)c2)cc1`, the AC50 was inconclusive: 6.04 µM.
With `CCCCCc1ccc(Cl)cc1` the AC50 was inconclusive: 0.987 µM.
For `O=C1CCC(C2CCCCC2)CC1`, the AC50 was inconclusive: 100 µM and the outcome was “inactive”.
In the case of `CC/C=C\CCOC(=O)CCCCC`, the AC50 is reported as inconclusive: 0.0823 µM.
In the case of `NC(=O)NN=Cc1ccc([N+](=O)[O-])o1`, the AC50 is reported as inconclusive: 100 µM.
For `Oc1ccc(C2(c3ccc(O)c(C4CCCCC4)c3)CCCCC2)cc1C1CCCCC1`, the outcome was “inactive”.
With `NC(=O)N=NC(N)=O` the AC50 was inconclusive: 1.38 µM.
For `c1ccc2c(c1)CCC2`, the AC50 was inconclusive: 0.0761 µM.
For `O=C(O)Cn1c(=O)n(Cc2ccc(Br)cc2F)c(=O)c2ccc(Cl)cc21`, the AC50 was inconclusive: 181 µM.
In the case of `CCCCCCCCCCCCS`, the AC50 is reported as inconclusive: 100 µM.
In the case of `CCC(=O)OCCOc1ccccc1`, the outcome is reported as “inactive”.
With `CC(C)c1cccc(O)c1` the outcome was “inactive”.
With `O=C1c2c(O)ccc(Nc3ccc(CCO)cc3)c2C(=O)c2c([N+](=O)[O-])ccc(O)c21` the outcome was “inactive”.
With `CCCCCCc1ccc(N)cc1` the outcome was “inactive”.
In the case of `CN(C)C(=O)C1(N2CCCCC2)CCN(CC[C@@]2(c3ccc(Cl)c(Cl)c3)CN(C(=O)c3ccccc3)CCO2)CC1`, the AC50 is reported as inconclusive: 0.62 µM.
With `Nc1nc(=S)c2[nH]cnc2[nH]1` the AC50 was inconclusive: 100 µM.
For `CCCCCCCCc1ccc(Nc2ccc(CCCCCCCC)cc2)cc1`, the outcome was “inactive”.
In the case of `COc1ccc(C(C)=O)cc1`, the AC50 is reported as inconclusive: 103 µM.
With `NC(O)(C(F)(F)F)C(F)(F)F` the AC50 was inconclusive: 150 µM.
